The values that follow come from PubChem BioAssay AID256 (DTP/NCI, 2004).

The list shows only some results of the screen, not a fair sample: it gathers tests that were run many times, whatever their T/C, doses with no T/C, and many T/C values between a quarter and a half above the control. Other doses and runs of a compound stand elsewhere. T/C: endpoint of the treated group in % of that of the vehicle group. Some entries give survivors of the animals treated and no T/C: the source files T/C as zero there, which appears to mark a toxic dose or a test without result, not a measured value. Some survivor counts are full or nearly so, which does not show that the dose was tolerated: the source hardly ever lists a survival T/C far under the control, and the zero likely stands for such cases as well. Survivors were counted at the toxicity check, usually on the fifth day, unless a day is given; later deaths do not show. Schedules are NCI's codes, read here as Q, the interval in days (D) or hours (H), X, the number of doses. For survival time, the PubChem record calls one and a half times the control and up active, and a quarter to a half above the control has no call in these data; cut-offs in other NCI protocols can differ. Additions like (4×) give the number of equal values in this list. Some doses were run more than once; the results are listed from low to high.

For this assay, the system named is CD2F1 mice, L1210 leukemia ip, survival T/C. Briefly: NCI In Vivo Anticancer Drug Screen. Data for tumor model L1210 Leukemia (intraperitoneal) in CD2F1 (CDF1) mice. The note with it: higher T/C = longer survival. In short, it runs like this: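 Transplantable tumor in mice; compound-treated vs vehicle-treated groups. Read-out = treated/control ratio of the measured endpoint.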

Where [1] appears, read: T/C endpoint: mean survival time, dose: 150.0 mg/kg/injection, schedule: Q01DX001 (ip), vehicle: saline.
[2] abbreviates: T/C endpoint: mean survival time, dose: 300.0 mg/kg/injection, schedule: Q01DX001 (ip), vehicle: saline.
Where [3] appears, read: T/C endpoint: mean survival time, dose: 400.0 mg/kg/injection, schedule: Q01DX001 (ip), vehicle: saline.
[4] abbreviates: T/C endpoint: mean survival time, dose: 100.0 mg/kg/injection, schedule: Q04DX003 (ip), vehicle: saline.
Where [5] appears, read: T/C endpoint: mean survival time, dose: 200.0 mg/kg/injection, schedule: Q04DX003 (ip), vehicle: saline.
[6] abbreviates: T/C endpoint: mean survival time, dose: 200.0 mg/kg/injection, schedule: Q04DX003 (ip), vehicle: saline with Tween-80.
Where [7] appears, read: T/C endpoint: mean survival time, dose: 400.0 mg/kg/injection, schedule: Q04DX003 (ip), vehicle: saline with Tween-80.
[8] abbreviates: T/C endpoint: mean survival time, dose: 400.0 mg/kg/injection, schedule: Q04DX003 (ip), vehicle: saline.

In the case of `NC1=Nc2ccccc2CS1`, the survivor count is recorded as 3 of 6 under setting [1] and 0 of 6 under setting [2].
With `COC(=O)C(Cc1ccccc1)NC(=O)C(CSCc1ccccc1)NC(=O)OCc1ccccc1` (centres undefined), the survivor count runs as follows: (T/C endpoint: mean survival time, dose: 200.0 mg/kg/injection, schedule: Q01DX009 (ip), vehicle: saline with Tween-80) 6 of 6; (T/C endpoint: mean survival time, dose: 400.0 mg/kg/injection, schedule: Q01DX009 (ip), vehicle: saline with Tween-80) 6 of 6.
Consider `CNN(C)N=Nc1ccc(C(N)=O)cc1`, for which the survivor count (T/C endpoint: mean survival time, dose: 79.0 mg/kg/injection, schedule: Q01DX009 (ip), vehicle: Klucel (hydroxypropylcellulose) (HPC)) is reported as 2 of 6; the survivor count (T/C endpoint: mean survival time, dose: 118.0 mg/kg/injection, schedule: Q01DX009 (ip), vehicle: Klucel (hydroxypropylcellulose) (HPC)) is reported as 0 of 6; the survivor count (T/C endpoint: mean survival time, dose: 177.0 mg/kg/injection, schedule: Q01DX009 (ip), vehicle: Klucel (hydroxypropylcellulose) (HPC)) was 0 of 6; the survivor count (T/C endpoint: mean survival time, dose: 266.0 mg/kg/injection, schedule: Q01DX009 (ip), vehicle: Klucel (hydroxypropylcellulose) (HPC)) was 0 of 6; the survivor count (T/C endpoint: mean survival time, dose: 400.0 mg/kg/injection, schedule: Q01DX009 (ip), vehicle: Klucel (hydroxypropylcellulose) (HPC)) is listed as 0 of 6.
Take `Cc1cc(Cl)ccc1NC(=O)Nc1c(Oc2ccc(Cl)cc2)ccc(Cl)c1S(=O)(=O)O`: the survivor count under setting [3] is on record as 5 of 6.
On to `CCC1C(C)CNC1C` (centres undefined), for which the survivor count (T/C endpoint: mean survival time, dose: 200.0 mg/kg/injection, schedule: Q01DX001 (ip), vehicle: saline with Tween-80) is recorded as 0 of 6 and the survivor count (T/C endpoint: mean survival time, dose: 400.0 mg/kg/injection, schedule: Q01DX001 (ip), vehicle: saline with Tween-80) is 0 of 6.
As for `CC(C)(Nc1nc2c(ncn2C2OC(CO)C(O)C2O)c(=O)[nH]1)P(=O)(O)O` (centres undefined), where the note is “T/C endpoint: median survival time, dose: 200.0 mg/kg/injection, schedule: Q01DX005 (ip), vehicle: water”, the survivor count is 0 of 6.
With `CN(C)C(=O)OC1CCCC1[N+](C)(C)CCCCCCCC[N+](C)(C)C1CCCC1OC(=O)N(C)C` (centres undefined), the survivor count (T/C endpoint: mean survival time, dose: 1.25 mg/kg/injection, schedule: Q04DX003 (ip), vehicle: saline) is listed as 5 of 6; the survivor count (T/C endpoint: mean survival time, dose: 1.57 mg/kg/injection, schedule: Q01DX009 (iv), vehicle: methylcellulose (MC)) is 2 of 6; the survivor count (T/C endpoint: mean survival time, dose: 3.13 mg/kg/injection, schedule: Q01DX009 (iv), vehicle: methylcellulose (MC)) was 0 of 6; the survivor count (T/C endpoint: mean survival time, dose: 6.25 mg/kg/injection, schedule: Q01DX009 (iv), vehicle: methylcellulose (MC)) was 0 of 6.
On to `CC[C@@]1(OP(=O)(O)O)C(=O)OCc2c1cc1n(c2=O)Cc2cc3ccccc3nc2-1`, for which the T/C runs as follows: (T/C endpoint: median survival time, dose: 8.25 mg/kg/injection, schedule: Q04HX004 (iv), vehicle: water) 142 % of control; (T/C endpoint: median survival time, dose: 22.0 mg/kg/injection, schedule: Q04DX002 (ip), vehicle: water) 125 and 132 % of control. Also, the survivor count (T/C endpoint: median survival time, dose: 44.0 mg/kg/injection, schedule: Q04HX004 (iv), vehicle: water) is 1 of 6.
Regarding `[Cl][Pt+2][Cl].[NH-]CC(C[NH-])(Cc1ccccc1)Cc1ccccc1`, the T/C (T/C endpoint: mean survival time, dose: 3.12 mg/kg/injection, schedule: Q04DX003 (ip), vehicle: saline) was 125 % of control; the T/C (T/C endpoint: mean survival time, dose: 25.0 mg/kg/injection, schedule: Q04DX003 (ip), vehicle: saline) was 131 % of control; the T/C (T/C endpoint: mean survival time, dose: 50.0 mg/kg/injection, schedule: Q04DX003 (ip), vehicle: saline) is 127 and 135 % of control; the T/C under setting [4] was 137 % of control (2×); the T/C under setting [5] is 138 % of control.
`[O-][n+]1cccc2ccc3ccccc3c21`: for the setting “T/C endpoint: mean survival time, dose: 200.0 mg/kg/injection, schedule: Q01DX009 (ip), vehicle: other”, the survivor count is on record as 0 of 3.
Turning to `CNC(Cc1ccccc1)c1ccccc1` (centres undefined), the survivor count runs as follows: under setting [6], 0 of 6; under setting [7], 0 of 6.
As to `COC(=O)CCC(=O)c1ccccc1C`, under “T/C endpoint: mean survival time, dose: 400.0 mg/kg/injection, schedule: Q04DX003 (ip), vehicle: acetone”, the survivor count was 2 of 6.
Take `CC(=O)Nc1ncc2ccccc2c1-c1ccc(NC(=O)CN(CCCl)CCCl)cc1`: the survivor count (T/C endpoint: mean survival time, dose: 400.0 mg/kg/injection, schedule: Q04DX003 (ip), vehicle: other) is on record as 3 of 3.
For `NS(=O)(=O)Cc1ccccc1`, the survivor count is 2 of 6 under setting [5] and 0 of 6 under setting [8].
Regarding `COc1ccc(C2NCCc3cc(OC)c(OC)cc32)cc1OC` (centres undefined), for the setting “T/C endpoint: mean survival time, dose: 200.0 mg/kg/injection, schedule: Q01DX009 (ip), vehicle: water”, the survivor count is 1 of 6.
Regarding `CCCCCCC[CH2][Sn]1([CH2]CCCCCCC)[O]OC(c2ccccc2)[O]1` (centres undefined), the survivor count is recorded as 3 of 3 (T/C endpoint: mean survival time, dose: 25.0 mg/kg/injection, schedule: Q04DX002 (ip), vehicle: saline with Tween-80) and 0 of 3 (T/C endpoint: mean survival time, dose: 100.0 mg/kg/injection, schedule: Q04DX002 (ip), vehicle: saline with Tween-80).
Turning to `O=C(O)CC1C=CCC1` (centres undefined), the survivor count under setting [6] is reported as 0 of 3 and the survivor count under setting [7] is 0 of 3.
In the case of `Clc1nc[nH]c1Cl`, the survivor count is, setting by setting: under setting [6], 1 of 6; under setting [7], 1 of 6.
Consider `CC1CCCCC1NC(=O)Nc1ccccc1` (centres undefined), for which the survivor count under setting [7] is on record as 6 of 6.
On to `CCCCCCCCCCCCNC(=O)c1cc[n+](C)cc1`, for which the survivor count runs as follows: (T/C endpoint: mean survival time, dose: 25.0 mg/kg/injection, schedule: Q01DX009 (ip), vehicle: saline) 2 of 6; (T/C endpoint: mean survival time, dose: 50.0 mg/kg/injection, schedule: Q01DX009 (ip), vehicle: saline) 0 of 6; under setting [4], 1 of 6; under setting [5], 0 of 6; under setting [8], 0 of 6.
Consider `CCOP(=[Se])(OCC)[Se][Se][Se]P(=[Se])(OCC)OCC`, for which the survivor count (T/C endpoint: mean survival time, dose: 200.0 mg/kg/injection, schedule: Q01DX001 (ip), vehicle: saline) is recorded as 2 of 6 and the survivor count under setting [3] is listed as 3 of 6.
As for `CCCCCCCCCCCCCCCCCC(=O)NCCN(CC)CC`, the survivor count is given as 3 of 6 under setting [1] and 1 of 6 under setting [2].
